PubChem BioAssay AID1259425 | University of Nebraska Medical Center | 2018

Assay: 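Seek colon cancer weak points whose silencing resembles KSR1 loss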 (primary screen)
Cells: HCT116 human colon cancer cells
Reagents: siRNA pool against human genes, 50 nM siRNA
Measurement: 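After 50 nM siRNA pool, branched-DNA assay measures six marker transcripts per well, minus blank, normalised to the geometric mean of two housekeeping transcripts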
Direction: BNIP3L mRNA: higher = more BNIP3L transcript after knockdown; NDRG1 mRNA: higher = more NDRG1 transcript after knockdown; BNIP3 mRNA: higher = more BNIP3 transcript after knockdown; ALDOC mRNA: higher = more ALDOC transcript after knockdown
The whole screen tested about 14,000 reagents; below is an unselected part. Further read-outs or replicates are left out here. Not given: the time to read-out.

| Gene | BNIP3L mRNA, set 1 | NDRG1 mRNA, set 1 | BNIP3 mRNA, set 1 | ALDOC mRNA, set 1 |
| --- | --- | --- | --- | --- |
| GTPBP3 (GTP binding protein 3, mitochondrial) | 0.187 | 0.36 | 0.276 | 0.0376 |
| ZNF219 (zinc finger protein 219) | 0.0984 | 0.132 | 0.427 | 0.0191 |
| PGAM2 (phosphoglycerate mutase 2) | 0.0838 | 0.191 | 0.284 | 0.0402 |
| TMBIM4 (transmembrane BAX inhibitor motif containing 4) | 0.169 | 0.425 | 0.311 | 0.0175 |
| PTGS2 (prostaglandin-endoperoxide synthase 2) | 0.0724 | 0.111 | 0.212 | 0.0135 |
| EFR3B (EFR3 homolog B) | 0.187 | 0.43 | 0.375 | 0.0327 |
| KLRK1 (killer cell lectin like receptor K1) | 0.11 | 0.19 | 0.36 | 0.019 |
| SLC5A1 | 0.117 | 0.46 | 0.568 | 0.0265 |
| SEMA4A (semaphorin 4A) | 0.138 | 0.252 | 0.328 | 0.0184 |
| ZNF347 (zinc finger protein 347) | 0.0662 | 0.0734 | 0.404 | 0.00526 |
| CACNB1 (calcium voltage-gated channel auxiliary subunit beta 1) | 0.136 | 0.114 | 0.19 | 0.0192 |
| NLK (nemo like kinase) | 0.186 | 0.0769 | 0.366 | 0.011 |
| GHRHR (growth hormone releasing hormone receptor) | 0.12 | 0.469 | 0.363 | 0.0556 |
| DCTN5 (dynactin subunit 5) | 0.134 | 0.263 | 0.24 | 0.0417 |
| AMFR (autocrine motility factor receptor) | 0.143 | 0.216 | 0.445 | 0.0589 |
| BCL6B (BCL6B transcription repressor) | 0.138 | 0.136 | 0.238 | 0.0244 |
| MAF (MAF bZIP transcription factor) | 0.0911 | 0.206 | 0.266 | 0.018 |
| FRMD5 (FERM domain containing 5) | 0.0978 | 0.639 | 0.327 | 0.06 |
| TNS3 (tensin 3) | 0.834 | 1.15 | 0.739 | 0.0284 |
| SULT1A2 (sulfotransferase family 1A member 2) | 0.159 | 0.227 | 0.419 | 0.0401 |
| GLRX5 (glutaredoxin 5) | 0.0684 | 0.356 | 0.286 | 0.0242 |
| CERS1 (ceramide synthase 1) | 0.226 | 0.148 | 0.246 | 0.0301 |
| GGH (gamma-glutamyl hydrolase) | 0.161 | 0.316 | 0.238 | 0.0446 |
| SLC25A3 | 0.118 | 0.151 | 0.237 | 0.037 |
| PABPN1 (poly(A) binding protein nuclear 1) | 0.103 | 0.164 | 0.181 | 0.0188 |
| PURG (purine rich element binding protein G) | 0.0412 | 0.192 | 0.274 | 0.0499 |
| EDC3 (enhancer of mRNA decapping 3) | 0.271 | 0.725 | 0.451 | 0.0499 |
| TNIK (TRAF2 and NCK interacting kinase) | 0.088 | 0.175 | 0.354 | 0.00656 |
| FBXO28 (F-box protein 28) | 0.159 | 0.0874 | 0.325 | 0.049 |
| CCDC54 (coiled-coil domain containing 54) | 0.118 | 0.137 | 0.303 | 0.0406 |
| PALS2 (protein associated with LIN7 2, MAGUK p55 family member) | 0.169 | 0.109 | 0.22 | 0.0235 |
| RIC8A (RIC8 guanine nucleotide exchange factor A) | 0.152 | 0.0636 | 0.324 | 0.036 |
| KLK8 (kallikrein related peptidase 8) | 0.0597 | 0.377 | 0.232 | 0.0146 |
| ZNF137P (zinc finger protein 137, pseudogene) | 0.0542 | 0.131 | 0.257 | 0.0205 |

2 consecutive reagents from above:
| Gene | BNIP3L mRNA, set 1 | NDRG1 mRNA, set 1 | BNIP3 mRNA, set 1 | ALDOC mRNA, set 1 |
| --- | --- | --- | --- | --- |
| PTGS2 (prostaglandin-endoperoxide synthase 2) | 0.0724 | 0.111 | 0.212 | 0.0135 |
| EFR3B (EFR3 homolog B) | 0.187 | 0.43 | 0.375 | 0.0327 |
